From article PMC10423209
Results are given in words; binding and its absence hold for the method and conditions named. In cells and extracts the contact can be indirect. Tags and fused reporters may be left off the sequences shown.

Molecular target: T1, Flag-SLC26A3 (wild type) (human) (UniProt P40879)
T1 sequence: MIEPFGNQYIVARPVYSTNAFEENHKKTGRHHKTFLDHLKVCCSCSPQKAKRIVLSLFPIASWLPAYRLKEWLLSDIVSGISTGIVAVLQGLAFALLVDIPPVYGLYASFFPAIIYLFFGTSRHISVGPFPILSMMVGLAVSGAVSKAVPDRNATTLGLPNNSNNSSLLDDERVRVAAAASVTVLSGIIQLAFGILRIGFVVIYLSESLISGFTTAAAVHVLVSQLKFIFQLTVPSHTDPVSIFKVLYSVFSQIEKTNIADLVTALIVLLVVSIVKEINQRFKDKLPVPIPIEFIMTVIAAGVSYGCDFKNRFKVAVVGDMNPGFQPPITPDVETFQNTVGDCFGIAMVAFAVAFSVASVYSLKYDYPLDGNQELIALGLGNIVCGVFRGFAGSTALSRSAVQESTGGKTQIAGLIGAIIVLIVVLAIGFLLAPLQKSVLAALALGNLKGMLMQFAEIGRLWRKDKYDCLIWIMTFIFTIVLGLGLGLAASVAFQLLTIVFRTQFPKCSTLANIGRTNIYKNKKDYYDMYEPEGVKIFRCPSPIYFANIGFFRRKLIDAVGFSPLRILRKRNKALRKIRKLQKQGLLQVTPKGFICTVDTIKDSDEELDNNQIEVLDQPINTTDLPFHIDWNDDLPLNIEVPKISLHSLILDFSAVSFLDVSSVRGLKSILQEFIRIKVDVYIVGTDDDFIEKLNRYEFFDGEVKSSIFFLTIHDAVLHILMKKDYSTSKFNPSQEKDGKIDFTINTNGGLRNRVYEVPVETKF
Test: co-IP; HEK293T (for the two fragments also HCT116) co-transfected with Flag-SLC26A3 and Myc-NHERF2 constructs for 48 h; Flag-tagged and Myc-tagged anti-beads

For “Myc-NHERF2 C-terminal fragment (human) (domain or fragment)”, the binding was “no binding”.
